{
  "source": "PubChem BioAssay AID1487",
  "about": "(National Center for Advancing Translational Sciences (NCATS), 2009)",
  "assay": "qHTS Assay for Modulators of Lamin A Splicing",
  "conditions": "HeLa LMNA splicing GFP/RFP minigene ratio, 48 h",
  "outline": "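S3 HeLa cells stably expressing lamin A-EGFP splicing minigene plus DsRed2, 600 cells/well, 48 h compound exposure at 37C. Laser-scanning cytometry; analysed as GFP (500-530 nm)/RFP (575-640 nm) total intensity ratio; 0.5% DMSO vehicle.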",
  "key": {"[1]": {"conditions": "measured here: GFP splicing reporter channel"}, "[2]": {"conditions": "measured here: RFP viability control channel"}},
  "note": "The list shows a part of the results. Shown are side measurements of this screen, not its main read-out; they come without a call. The list favours compounds with an active or inconclusive main result. Words in brackets tell the shape of the fitted curve; partial curves, single points and poor fits give uncertain potencies.",
  "data": [
    {"smiles": "Cc1cccc(CNc2ncnc3ccc(-c4cccnc4)cc23)c1", "values": [
      {"measurement": "AC50", "setting": "[1]", "value": "12.6 µM [falling, partial curve]"},
      {"measurement": "AC50", "setting": "[2]", "value": "12.6 µM [falling, partial curve]"}
    ]},
    {"smiles": "Cc1ccc(S(=O)(=O)Nc2ccc3c(c2)n(C)c(=O)n3C)c(C)c1", "values": [
      {"measurement": "AC50", "setting": "[1]", "value": "0.316 µM [falling, partial curve, poor fit]"},
      {"measurement": "AC50", "setting": "[2]", "value": "0.355 µM [falling, full curve]"}
    ]},
    {"smiles": "CC(C)(C)n1nnnc1C(c1cccs1)N1CCCC2(CCCCC2)C1", "note": "(stereo not given)", "values": [
      {"measurement": "AC50", "setting": "[2]", "value": "15.8 µM [rising, partial curve]"}
    ]},
    {"smiles": "Cc1cccc(NC(=O)CSc2nnc([C@@H]3CCCN3C(=O)OC(C)(C)C)o2)c1C", "values": [
      {"measurement": "AC50", "setting": "[2]", "value": "10 µM [falling, partial curve, poor fit]"}
    ]},
    {"smiles": "COc1ccc(N2CCN(C(=O)CN3CCN(C(c4ccccc4)c4ccccc4)CC3)CC2)cc1", "values": [
      {"measurement": "AC50", "setting": "[2]", "value": "35.5 µM [rising, single point]"}
    ]},
    {"smiles": "Cn1c(Cn2cnc3ccccc32)nnc1SCc1ccccc1", "values": [
      {"measurement": "AC50", "setting": "[2]", "value": "10 µM [rising, partial curve]"}
    ]},
    {"smiles": "CCOc1cc(CNc2ccc(N3CCCCC3)cc2)cc(Br)c1OCC(=O)NC(C)(C)C", "values": [
      {"measurement": "AC50", "setting": "[2]", "value": "35.5 µM [rising, single point]"}
    ]},
    {"smiles": "COc1cccc(/C=N/Nc2snc(SC)c2C#N)c1", "values": [
      {"measurement": "AC50", "setting": "[1]", "value": "0.00501 µM [falling, full curve]"},
      {"measurement": "AC50", "setting": "[2]", "value": "0.01 µM [falling, full curve]"}
    ]},
    {"smiles": "CN1CCN(C(=O)c2cc3nc(-c4ccccc4)cc(C(F)(F)F)n3n2)CC1", "values": [
      {"measurement": "AC50", "setting": "[1]", "value": "7.08 µM [rising, partial curve]"},
      {"measurement": "AC50", "setting": "[2]", "value": "11.2 µM [rising, partial curve]"}
    ]},
    {"smiles": "COc1ccc(CCNC(=O)c2ccccc2N(C)S(=O)(=O)c2ccccc2)cc1", "values": [
      {"measurement": "AC50", "setting": "[1]", "value": "17.8 µM [rising, single point]"},
      {"measurement": "AC50", "setting": "[2]", "value": "20 µM [rising, partial curve, poor fit]"}
    ]},
    {"smiles": "Cc1noc(C)c1COc1cccc(C(=O)Nc2ccccc2N2CCOCC2)c1", "values": [
      {"measurement": "AC50", "setting": "[1]", "value": "0.891 µM [rising, partial curve, poor fit]"},
      {"measurement": "AC50", "setting": "[2]", "value": "1.78 µM [rising, partial curve]"}
    ]},
    {"smiles": "Cc1cccc(NC(=O)c2ccccc2OCC(=O)c2ccccc2)c1", "values": [
      {"measurement": "AC50", "setting": "[2]", "value": "0.794 µM [falling, single point]"}
    ]},
    {"smiles": "Cc1cc(C(=O)OCC(=O)N2c3ccccc3NC(=O)C2(C)C)c(C)n1-c1ccccc1", "values": [
      {"measurement": "AC50", "setting": "[2]", "value": "11.2 µM [rising, partial curve]"}
    ]},
    {"smiles": "Cc1ccc(C(NC(=O)N2CCCC2)C(Cl)(Cl)Cl)cc1F", "note": "(stereo not given)", "values": [
      {"measurement": "AC50", "setting": "[2]", "value": "0.708 µM [rising, full curve, poor fit]"}
    ]},
    {"smiles": "CCCCCCCCCCCCCC(=O)OC(C)C", "values": [
      {"measurement": "AC50", "setting": "[1]", "value": "0.562 µM [falling, full curve]"},
      {"measurement": "AC50", "setting": "[2]", "value": "0.562 µM [falling, single point]"}
    ]},
    {"smiles": "CC(O)(P(=O)(O)O)P(=O)(O)O", "values": [
      {"measurement": "AC50", "setting": "[1]", "value": "1.41 µM [falling, partial curve, poor fit]"},
      {"measurement": "AC50", "setting": "[2]", "value": "1.26 µM [falling, single point]"}
    ]},
    {"smiles": "CCNC(=S)N1CCCC(c2nc3ccc(C)cc3[nH]2)C1", "note": "(stereo not given)", "values": [
      {"measurement": "AC50", "setting": "[1]", "value": "0.251 µM [falling, full curve]"},
      {"measurement": "AC50", "setting": "[2]", "value": "0.501 µM [falling, full curve]"}
    ]},
    {"smiles": "Cc1ccc(SCC(=O)Nc2ccccc2C(=O)O)cc1", "values": [
      {"measurement": "AC50", "setting": "[2]", "value": "15.8 µM [rising, single point]"}
    ]},
    {"smiles": "CCc1ccc(OCCNC(=O)c2cccs2)cc1", "values": [
      {"measurement": "AC50", "setting": "[2]", "value": "35.5 µM [rising, single point]"}
    ]},
    {"smiles": "N#CC(C(=O)NC1CC1)c1nc2ccccc2nc1N1CCN(C/C=C/c2ccccc2)CC1", "note": "(stereo not given)", "values": [
      {"measurement": "AC50", "setting": "[2]", "value": "0.112 µM [rising, full curve, poor fit]"}
    ]},
    {"smiles": "Cc1cccc(N2CCN(C(=O)COCc3cc(-c4ccc5c(c4)OCO5)on3)CC2)c1C", "values": [
      {"measurement": "AC50", "setting": "[1]", "value": "14.1 µM [rising, partial curve, poor fit]"},
      {"measurement": "AC50", "setting": "[2]", "value": "31.6 µM [rising, single point]"}
    ]},
    {"smiles": "O=C1c2cccnc2C(Nc2ccc(Br)cc2Br)N1Cc1cccs1", "note": "(stereo not given)", "values": [
      {"measurement": "AC50", "setting": "[1]", "value": "35.5 µM [falling, partial curve, poor fit]"}
    ]},
    {"smiles": "CCCOc1ccc(Cn2cnc3ccccc32)cc1", "values": [
      {"measurement": "AC50", "setting": "[2]", "value": "7.94 µM [rising, partial curve]"}
    ]},
    {"smiles": "N#CC1=C(SCc2ccccc2)NC(=O)CC1c1ccco1", "note": "(stereo not given)", "values": [
      {"measurement": "AC50", "setting": "[1]", "value": "10 µM [rising, partial curve, poor fit]"}
    ]},
    {"smiles": "CCOC(=O)c1sc(NC(=O)CSc2nc3c(c(=O)n2-c2ccc(C)cc2)SCC3)c(C(=O)OCC)c1C", "values": [
      {"measurement": "AC50", "setting": "[1]", "value": "0.0562 µM [falling, full curve, poor fit]"},
      {"measurement": "AC50", "setting": "[2]", "value": "0.0398 µM [falling, full curve]"}
    ]},
    {"smiles": "C/C(=N\\NC(=O)c1c(Br)c(C)nn1C)c1cccc(NC(=O)c2ccccc2C)c1", "values": [
      {"measurement": "AC50", "setting": "[1]", "value": "12.6 µM [rising, partial curve, poor fit]"},
      {"measurement": "AC50", "setting": "[2]", "value": "10 µM [rising, partial curve]"}
    ]},
    {"smiles": "Cc1nc(NC(=O)/C=C/c2ccccc2)sc1C(=O)Nc1ccc(Cl)cc1", "values": [
      {"measurement": "AC50", "setting": "[1]", "value": "22.4 µM [falling, single point]"},
      {"measurement": "AC50", "setting": "[2]", "value": "25.1 µM [falling, single point]"}
    ]},
    {"smiles": "CCCc1ccc(C#N)c(SC2CC(=O)N(c3ccc(OC)cc3)C2=O)n1", "note": "(stereo not given)", "values": [
      {"measurement": "AC50", "setting": "[1]", "value": "0.0794 µM [rising, full curve, poor fit]"}
    ]},
    {"smiles": "Cc1cc(C(=O)CSc2ncn[nH]2)c(C)n1-c1cccc(S(=O)(=O)N2CCOCC2)c1", "values": [
      {"measurement": "AC50", "setting": "[2]", "value": "0.891 µM [rising, partial curve]"}
    ]},
    {"smiles": "CCOC(=O)c1ccc(NC(=S)N(CCCN2CCN(C)CC2)Cc2cccs2)cc1", "values": [
      {"measurement": "AC50", "setting": "[1]", "value": "17.8 µM [falling, partial curve, poor fit]"}
    ]},
    {"smiles": "Cc1cc(C)c(C(N)=O)c(SCC(=O)c2cc(C)c(C)cc2C)n1", "values": [
      {"measurement": "AC50", "setting": "[2]", "value": "10 µM [rising, partial curve]"}
    ]},
    {"smiles": "Cc1ccc(CNS(=O)(=O)c2cc(C(=O)Nc3ccc(C(C)C)cc3)ccc2F)cc1", "values": [
      {"measurement": "AC50", "setting": "[1]", "value": "6.31 µM [falling, full curve]"},
      {"measurement": "AC50", "setting": "[2]", "value": "3.16 µM [falling, full curve, poor fit]"}
    ]},
    {"smiles": "O=C(Nc1ccc(Cl)c(Cl)c1)N1CC=C(c2ccccc2)CC1", "values": [
      {"measurement": "AC50", "setting": "[2]", "value": "35.5 µM [falling, single point]"}
    ]},
    {"smiles": "COc1ccc(N2CCN(C(=O)CNC(=O)Cn3c(C)cc4ccccc4c3=O)CC2)cc1", "values": [
      {"measurement": "AC50", "setting": "[1]", "value": "5.62 µM [rising, single point]"}
    ]},
    {"smiles": "O=[N+]([O-])c1cccc(/C=N\\N2CCN(Cc3ccccc3Cl)CC2)c1", "values": [
      {"measurement": "AC50", "setting": "[1]", "value": "14.1 µM [rising, partial curve]"},
      {"measurement": "AC50", "setting": "[2]", "value": "28.2 µM [rising, partial curve]"}
    ]}
  ]
}
